Structures can show the parent of a compound that is named as a salt. The list shows a part of the results. Rule as the data show it: active = 0.7 or more and inactive = the rest. Repeats are few or missing, and single values can be far off.
system: MiaPaCa-2 CLSA-25; experiment: cell death relative to DMSO vehicle (fraction); higher = more cytotoxic; conditions: 5 µM; treatment time 48 h; medium cystine 25 µM

How did the cell death turn out when Cn1cc(C(=O)Nc2ccc3c(c2)OCCO3)c2ccccc2c1=O was run?
Its cell death is inactive: 0.

With CC(C)[C@]12O[C@H]1[C@@H]1O[C@]13[C@]1(O[C@H]1C[C@H]1C4=C(CC[C@@]13C)C(=O)OC4)[C@@H]2O [Triptolide] as the compound, how does the cell death read?
Its cell death is inactive: 0.584.

How did the cell death turn out when Cc1coc2c1C(=O)C(=O)c1c-2ccc2c(C)cccc12 [Tanshinone I] was run?
The cell death was inactive: 0.0169.

CCC(=O)O[C@]1(C(=O)CCl)[C@@H](C)C[C@H]2[C@@H]3CCC4=CC(=O)C=C[C@]4(C)[C@@]3(F)[C@@H](O)C[C@@]21C [Clobetasol propionate] was tested. Which cell death did it give?
The cell death was inactive: 0.034.

With CCCc1nn(C)c2c(=O)[nH]c(-c3cc(S(=O)(=O)N4CCN(C)CC4)ccc3OCC)nc12 [Sildenafil citrate] as the compound, how does the cell death read?
Its cell death is inactive: 0.117.

COC[C@H]1C[C@@H](c2nc(-c3ccc4c(c3)COc3cc5c(ccc6nc([C@@H]7CC[C@H](C)N7C(=O)[C@@H](NC(=O)OC)C(C)C)[nH]c65)cc3-4)c[nH]2)N(C(=O)[C@H](NC(=O)OC)c2ccccc2)C1 [Velpatasvir] was tested. Which cell death did it give?
The cell death was inactive: 0.0372.

O=S(=O)(NCCSSCCNS(=O)(=O)c1cc(Cl)ccc1Cl)c1cc(Cl)ccc1Cl was tested. Which cell death did it give?
Its cell death is inactive: 0.583.

Cc1oncc1C(=O)Nc1ccc(C(F)(F)F)cc1 [Leflunomide] was tested. Which cell death did it give?
The cell death was active: 0.77.

How did the cell death turn out when O=C(Nc1cccc(C(F)(F)F)c1)Nc1cc(S(=O)(=O)NC2CC2)ccc1-c1ccsc1 was run?
Its cell death is inactive: 0.282.

How did the cell death turn out when Cn1c(=O)c2c(ncn2CC2OCCO2)n(C)c1=O [Doxofylline] was run?
The cell death was inactive: 0.142.

Which cell death does the source give for CC(C)OC(=O)C(C)(C)Oc1ccc(C(=O)c2ccc(Cl)cc2)cc1 [Fenofibrate] here?
The cell death was inactive: 0.0968.

COCCOC(=O)C1=C(C)NC(C)=C(C(=O)OC(C)C)C1c1cccc([N+](=O)[O-])c1 (centres undefined) [Nimodipine] was tested. Which cell death did it give?
The cell death was inactive: 0.0286.

How did the cell death turn out when C[C@H](O)[C@@H](O)[C@@H](O)[C@H](O)C=O [L-(-)-Fucose] was run?
Its cell death is active: 0.73.

Which cell death does the source give for COc1cccc(-c2cc(F)ccc2[C@H]2Cc3nc(N)nc(C)c3C(=O)N2)n1 here?
Its cell death is inactive: 0.131.

Nc1ccc(O)c(C(=O)O)c1 [Mesalamine] was tested. Which cell death did it give?
The cell death was inactive: 0.562.

Which cell death does the source give for O=C1CCCC(=O)C1C(=O)c1ccc(C(F)(F)F)cc1[N+](=O)[O-] [Nitisinone] here?
The cell death was inactive: 0.057.

CC(=O)Oc1cc(C)c(OC(C)=O)c2ccccc12 [Menadiol Diacetate] was tested. Which cell death did it give?
The cell death was inactive: 0.0859.

Which cell death does the source give for C/C1=C/CC[C@H](C)C(=O)C[C@@H](C(C)C)C(=O)C1 [Curdione] here?
The cell death was inactive: 0.17.

For O=C(O)C[C@H](O)C[C@H](O)/C=C/c1c(C2CC2)nc2ccccc2c1-c1ccc(F)cc1 [Pitavastatin calcium], which cell death is on record?
The cell death was inactive: 0.587.

Which cell death does the source give for CCOc1cc(CC(=O)N[C@@H](CC(C)C)c2ccccc2N2CCCCC2)ccc1C(=O)O [Repaglinide] here?
Its cell death is inactive: 0.0979.

Which cell death does the source give for CC(C)C[C@H](NC(=O)[C@H](CCc1ccccc1)NC(=O)CN1CCOCC1)C(=O)N[C@@H](Cc1ccccc1)C(=O)N[C@@H](CC(C)C)C(=O)[C@@]1(C)CO1 [Carfilzomib] here?
Its cell death is active: 0.718.

CCCC(=O)O[C@]1(C(=O)CO)CC[C@H]2[C@@H]3CCC4=CC(=O)CC[C@]4(C)[C@H]3[C@@H](O)C[C@@]21C [Hydrocortisone butyrate] was tested. Which cell death did it give?
Its cell death is inactive: 0.142.

How did the cell death turn out when C[N+](C)(C)CC(O)CC(=O)[O-] (stereo not drawn) [L(-)-Carnitine] was run?
The cell death was inactive: 0.0318.

Which cell death does the source give for Cc1c(C(=O)NN2CCOCC2)nn(-c2ccc(Cl)cc2Cl)c1-c1ccc(I)cc1 here?
Its cell death is inactive: 0.169.

For Nc1nc2[nH]cc(CCc3ccc(C(=O)N[C@@H](CCC(=O)O)C(=O)O)cc3)c2c(=O)[nH]1 [Pemetrexed disodium], which cell death is on record?
The cell death was inactive: 0.175.

With CCOc1ccc(Cc2cc([C@@H]3O[C@H](SC)[C@@H](O)[C@H](O)[C@H]3O)ccc2Cl)cc1 [Sotagliflozin] as the compound, how does the cell death read?
Its cell death is inactive: 0.202.

With CCC(=O)OCC(=O)[C@@]1(OC(=O)CC)[C@@H](C)C[C@H]2[C@@H]3CCC4=CC(=O)C=C[C@]4(C)[C@@]3(Cl)[C@@H](O)C[C@@]21C [Beclomethasone dipropionate] as the compound, how does the cell death read?
Its cell death is inactive: 0.148.

For C[C@@H]1CC(=O)NN=C1c1ccc(NN=C(C#N)C#N)cc1 [Levosimendan], which cell death is on record?
The cell death was inactive: 0.378.

With C=C(c1ccc(C(=O)O)cc1)c1cc2c(cc1C)C(C)(C)CCC2(C)C [Bexarotene] as the compound, how does the cell death read?
The cell death was inactive: 0.633.

Reference: the supplement of paper PMC12872613
